Reference: PMC8319186, “Mitochondrial adaptor TRAK2 activates and functionally links opposing kinesin and dynein motors” (Nature Communications, 2021)
Substitutions are numbered along the chain they refer to. No constants are given. Whether binding was seen depends on the method and setting. For some assays here: Binding seen in cells or lysates may run through a third protein. Some results given as binding are weak or reduced against the parent protein; the word gives no strength.

The chains behind the UniProt entries cited, without tags or fusion partners.
UniProt P28738: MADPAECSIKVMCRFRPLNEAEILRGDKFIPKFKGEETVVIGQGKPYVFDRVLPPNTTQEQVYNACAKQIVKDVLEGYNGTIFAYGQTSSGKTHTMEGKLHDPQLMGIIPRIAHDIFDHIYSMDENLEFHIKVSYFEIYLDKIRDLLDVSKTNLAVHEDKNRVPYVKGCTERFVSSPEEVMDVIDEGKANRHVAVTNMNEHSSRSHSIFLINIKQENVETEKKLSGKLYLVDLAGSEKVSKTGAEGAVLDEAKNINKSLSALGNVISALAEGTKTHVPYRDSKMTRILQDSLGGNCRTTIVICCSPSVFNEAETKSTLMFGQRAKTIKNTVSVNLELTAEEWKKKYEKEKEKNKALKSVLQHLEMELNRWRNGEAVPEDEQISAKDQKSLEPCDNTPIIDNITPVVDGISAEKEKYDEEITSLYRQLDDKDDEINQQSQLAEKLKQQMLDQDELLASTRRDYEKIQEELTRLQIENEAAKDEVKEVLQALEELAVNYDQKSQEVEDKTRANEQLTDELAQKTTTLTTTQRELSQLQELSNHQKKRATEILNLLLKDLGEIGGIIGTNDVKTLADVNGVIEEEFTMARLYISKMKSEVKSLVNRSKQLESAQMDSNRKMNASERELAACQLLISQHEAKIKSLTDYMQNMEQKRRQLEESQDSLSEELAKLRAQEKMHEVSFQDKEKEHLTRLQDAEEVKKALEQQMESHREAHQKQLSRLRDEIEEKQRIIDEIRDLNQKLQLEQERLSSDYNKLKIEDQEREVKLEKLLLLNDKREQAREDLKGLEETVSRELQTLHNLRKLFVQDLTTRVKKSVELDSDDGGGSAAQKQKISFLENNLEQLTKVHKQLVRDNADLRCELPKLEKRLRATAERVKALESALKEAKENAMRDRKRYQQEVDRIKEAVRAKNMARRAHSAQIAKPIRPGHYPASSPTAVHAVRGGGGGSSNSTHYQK
UniProt Q61768: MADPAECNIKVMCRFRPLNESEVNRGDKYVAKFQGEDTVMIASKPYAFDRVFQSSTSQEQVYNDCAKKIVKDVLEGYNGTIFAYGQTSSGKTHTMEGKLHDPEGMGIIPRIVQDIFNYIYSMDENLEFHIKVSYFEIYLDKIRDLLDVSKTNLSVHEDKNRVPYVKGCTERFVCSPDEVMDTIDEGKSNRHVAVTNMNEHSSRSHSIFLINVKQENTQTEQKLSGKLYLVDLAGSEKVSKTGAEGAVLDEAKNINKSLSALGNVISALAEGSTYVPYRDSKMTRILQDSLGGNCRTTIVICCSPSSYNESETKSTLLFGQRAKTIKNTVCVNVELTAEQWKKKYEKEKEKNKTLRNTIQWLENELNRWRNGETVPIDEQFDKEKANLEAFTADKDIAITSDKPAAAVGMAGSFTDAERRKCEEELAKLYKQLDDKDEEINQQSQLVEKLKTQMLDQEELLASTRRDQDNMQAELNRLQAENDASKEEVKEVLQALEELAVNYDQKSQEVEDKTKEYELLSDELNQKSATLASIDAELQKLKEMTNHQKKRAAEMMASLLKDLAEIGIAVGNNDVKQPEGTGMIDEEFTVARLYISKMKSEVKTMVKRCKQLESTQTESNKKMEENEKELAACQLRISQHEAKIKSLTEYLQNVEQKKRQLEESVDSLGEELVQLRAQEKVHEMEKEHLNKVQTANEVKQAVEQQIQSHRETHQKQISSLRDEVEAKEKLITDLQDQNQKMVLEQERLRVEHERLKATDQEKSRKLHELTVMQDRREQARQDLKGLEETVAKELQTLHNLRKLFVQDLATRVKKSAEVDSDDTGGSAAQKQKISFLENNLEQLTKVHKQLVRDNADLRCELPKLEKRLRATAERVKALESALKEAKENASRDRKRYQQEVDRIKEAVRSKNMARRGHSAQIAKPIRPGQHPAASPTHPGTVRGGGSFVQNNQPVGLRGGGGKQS
UniProt Q9JHU4: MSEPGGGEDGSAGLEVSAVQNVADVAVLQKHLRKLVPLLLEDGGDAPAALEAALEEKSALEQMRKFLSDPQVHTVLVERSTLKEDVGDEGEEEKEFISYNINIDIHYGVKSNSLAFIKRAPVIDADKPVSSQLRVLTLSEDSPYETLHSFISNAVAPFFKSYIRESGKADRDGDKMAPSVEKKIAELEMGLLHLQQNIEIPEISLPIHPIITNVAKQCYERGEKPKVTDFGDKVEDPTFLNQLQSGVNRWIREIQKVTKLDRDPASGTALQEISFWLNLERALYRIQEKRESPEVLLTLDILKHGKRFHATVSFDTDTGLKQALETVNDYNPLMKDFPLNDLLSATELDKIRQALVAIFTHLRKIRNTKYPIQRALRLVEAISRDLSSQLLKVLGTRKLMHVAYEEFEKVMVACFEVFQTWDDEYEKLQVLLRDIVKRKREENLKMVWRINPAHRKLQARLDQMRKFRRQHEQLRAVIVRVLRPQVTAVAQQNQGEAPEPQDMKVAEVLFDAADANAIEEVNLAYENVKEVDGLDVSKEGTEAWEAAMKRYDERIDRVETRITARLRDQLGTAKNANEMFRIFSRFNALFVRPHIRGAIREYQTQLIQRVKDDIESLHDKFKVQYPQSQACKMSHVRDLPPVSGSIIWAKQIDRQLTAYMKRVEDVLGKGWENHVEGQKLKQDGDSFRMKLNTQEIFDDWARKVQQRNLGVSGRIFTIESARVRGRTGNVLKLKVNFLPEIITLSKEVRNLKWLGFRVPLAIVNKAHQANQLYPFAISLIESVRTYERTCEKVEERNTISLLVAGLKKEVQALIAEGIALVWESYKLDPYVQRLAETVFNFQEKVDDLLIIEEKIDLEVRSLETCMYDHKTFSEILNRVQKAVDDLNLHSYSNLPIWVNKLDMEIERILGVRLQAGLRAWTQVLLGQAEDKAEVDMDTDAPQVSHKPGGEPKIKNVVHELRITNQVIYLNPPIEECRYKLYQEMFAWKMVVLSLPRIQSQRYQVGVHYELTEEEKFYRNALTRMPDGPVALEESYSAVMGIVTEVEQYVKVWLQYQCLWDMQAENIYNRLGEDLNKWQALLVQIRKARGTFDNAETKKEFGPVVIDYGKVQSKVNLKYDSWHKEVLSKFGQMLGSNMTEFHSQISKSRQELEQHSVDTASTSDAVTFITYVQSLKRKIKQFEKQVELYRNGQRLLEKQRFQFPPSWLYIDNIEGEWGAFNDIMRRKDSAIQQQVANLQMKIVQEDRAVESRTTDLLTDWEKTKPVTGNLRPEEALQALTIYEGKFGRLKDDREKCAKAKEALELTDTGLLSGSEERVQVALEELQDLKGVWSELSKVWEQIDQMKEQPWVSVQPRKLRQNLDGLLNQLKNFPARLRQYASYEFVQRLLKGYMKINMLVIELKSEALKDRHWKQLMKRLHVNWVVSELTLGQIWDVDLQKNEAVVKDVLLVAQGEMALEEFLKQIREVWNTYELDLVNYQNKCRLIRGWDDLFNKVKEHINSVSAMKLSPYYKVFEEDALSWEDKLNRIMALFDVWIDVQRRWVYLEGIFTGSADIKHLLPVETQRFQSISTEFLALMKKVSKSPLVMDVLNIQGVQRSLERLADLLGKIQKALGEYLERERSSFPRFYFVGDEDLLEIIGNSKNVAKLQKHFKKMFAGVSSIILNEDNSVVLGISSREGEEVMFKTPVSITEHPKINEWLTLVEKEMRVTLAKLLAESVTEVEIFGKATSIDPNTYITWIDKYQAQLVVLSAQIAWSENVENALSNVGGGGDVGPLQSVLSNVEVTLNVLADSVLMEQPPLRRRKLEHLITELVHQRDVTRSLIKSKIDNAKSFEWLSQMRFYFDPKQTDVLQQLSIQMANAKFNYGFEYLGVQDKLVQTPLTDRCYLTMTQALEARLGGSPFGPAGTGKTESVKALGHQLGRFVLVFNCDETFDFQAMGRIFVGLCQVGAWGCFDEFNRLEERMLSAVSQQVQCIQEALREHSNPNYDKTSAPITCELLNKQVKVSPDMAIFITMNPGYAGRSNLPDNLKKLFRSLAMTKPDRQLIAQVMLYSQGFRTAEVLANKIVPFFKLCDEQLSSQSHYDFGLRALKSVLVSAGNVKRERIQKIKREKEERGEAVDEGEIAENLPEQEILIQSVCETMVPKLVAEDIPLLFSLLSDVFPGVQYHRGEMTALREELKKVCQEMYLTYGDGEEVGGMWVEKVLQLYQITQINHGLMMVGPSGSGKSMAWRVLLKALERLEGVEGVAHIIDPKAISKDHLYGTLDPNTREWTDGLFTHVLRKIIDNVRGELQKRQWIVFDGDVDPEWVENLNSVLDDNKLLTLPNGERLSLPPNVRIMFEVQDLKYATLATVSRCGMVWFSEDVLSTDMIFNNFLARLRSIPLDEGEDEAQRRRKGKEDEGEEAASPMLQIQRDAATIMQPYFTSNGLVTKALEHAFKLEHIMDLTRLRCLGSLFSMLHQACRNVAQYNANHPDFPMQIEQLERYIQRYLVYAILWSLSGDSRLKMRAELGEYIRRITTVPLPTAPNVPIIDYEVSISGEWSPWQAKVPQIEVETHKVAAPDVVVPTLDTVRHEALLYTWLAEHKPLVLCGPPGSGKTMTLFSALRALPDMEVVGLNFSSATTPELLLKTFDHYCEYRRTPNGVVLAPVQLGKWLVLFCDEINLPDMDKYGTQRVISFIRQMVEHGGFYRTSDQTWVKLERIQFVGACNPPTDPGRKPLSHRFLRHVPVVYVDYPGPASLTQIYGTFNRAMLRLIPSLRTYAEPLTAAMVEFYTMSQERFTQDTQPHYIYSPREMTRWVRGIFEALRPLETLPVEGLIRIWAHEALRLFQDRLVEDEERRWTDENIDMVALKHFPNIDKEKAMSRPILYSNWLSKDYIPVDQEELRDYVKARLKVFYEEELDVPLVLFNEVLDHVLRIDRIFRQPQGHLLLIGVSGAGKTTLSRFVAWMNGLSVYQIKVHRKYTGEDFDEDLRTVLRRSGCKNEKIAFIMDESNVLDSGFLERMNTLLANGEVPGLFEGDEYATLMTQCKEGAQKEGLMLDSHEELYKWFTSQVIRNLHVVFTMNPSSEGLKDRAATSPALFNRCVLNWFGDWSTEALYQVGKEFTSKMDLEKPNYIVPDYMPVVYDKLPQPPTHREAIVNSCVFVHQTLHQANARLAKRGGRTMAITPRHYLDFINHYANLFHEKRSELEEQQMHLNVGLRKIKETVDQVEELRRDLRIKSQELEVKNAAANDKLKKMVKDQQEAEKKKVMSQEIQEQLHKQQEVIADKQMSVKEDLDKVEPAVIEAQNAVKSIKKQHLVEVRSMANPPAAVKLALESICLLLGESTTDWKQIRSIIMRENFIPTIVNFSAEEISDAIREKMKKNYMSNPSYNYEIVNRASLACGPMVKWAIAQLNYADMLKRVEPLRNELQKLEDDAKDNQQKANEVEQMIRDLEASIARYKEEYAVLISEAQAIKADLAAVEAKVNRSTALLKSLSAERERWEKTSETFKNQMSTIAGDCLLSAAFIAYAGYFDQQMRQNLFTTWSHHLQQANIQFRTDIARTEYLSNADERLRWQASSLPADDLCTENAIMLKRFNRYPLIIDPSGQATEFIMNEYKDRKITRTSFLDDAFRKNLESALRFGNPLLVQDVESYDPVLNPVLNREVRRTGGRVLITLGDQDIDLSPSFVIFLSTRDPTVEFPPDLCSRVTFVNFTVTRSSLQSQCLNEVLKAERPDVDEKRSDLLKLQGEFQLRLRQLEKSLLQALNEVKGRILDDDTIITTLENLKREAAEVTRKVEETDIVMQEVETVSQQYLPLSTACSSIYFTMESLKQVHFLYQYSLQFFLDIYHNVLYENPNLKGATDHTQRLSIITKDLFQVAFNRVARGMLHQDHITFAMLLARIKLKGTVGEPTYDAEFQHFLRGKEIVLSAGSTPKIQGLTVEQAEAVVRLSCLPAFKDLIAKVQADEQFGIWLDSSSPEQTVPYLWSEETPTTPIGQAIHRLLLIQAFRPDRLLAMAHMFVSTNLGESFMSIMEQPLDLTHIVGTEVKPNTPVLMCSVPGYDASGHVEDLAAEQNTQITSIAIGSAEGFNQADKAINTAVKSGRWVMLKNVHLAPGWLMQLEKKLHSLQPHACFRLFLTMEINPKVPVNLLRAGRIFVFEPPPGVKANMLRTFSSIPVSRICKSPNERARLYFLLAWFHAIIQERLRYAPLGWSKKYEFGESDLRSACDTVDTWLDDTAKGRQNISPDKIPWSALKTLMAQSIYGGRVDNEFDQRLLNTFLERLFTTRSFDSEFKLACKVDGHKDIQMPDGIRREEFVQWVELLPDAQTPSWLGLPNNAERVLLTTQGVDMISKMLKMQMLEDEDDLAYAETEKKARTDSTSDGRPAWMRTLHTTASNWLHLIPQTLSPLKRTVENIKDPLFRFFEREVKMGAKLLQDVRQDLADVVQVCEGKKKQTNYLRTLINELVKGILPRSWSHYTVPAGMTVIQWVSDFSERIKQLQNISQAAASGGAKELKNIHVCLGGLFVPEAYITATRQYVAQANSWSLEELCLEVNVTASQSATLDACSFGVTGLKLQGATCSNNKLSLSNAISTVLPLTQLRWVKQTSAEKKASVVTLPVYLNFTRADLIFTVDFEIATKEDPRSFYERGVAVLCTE

Columns and labels:
Halo-TRAK2 [1] = biological target: T1, Halo-TRAK2 (UniProt O60296); assay: co-IP; COS-7 cells expressing Myc-KIF5B and Halo-tagged TRAK2, TRAK2 A/V, TRAK2 I/D or negative control Optineurin; anti-HaloTag antibody on Protein G Dynabeads, 30 min at room temperature; blots for endogenous DHC and Myc-KIF5B
T1 sequence: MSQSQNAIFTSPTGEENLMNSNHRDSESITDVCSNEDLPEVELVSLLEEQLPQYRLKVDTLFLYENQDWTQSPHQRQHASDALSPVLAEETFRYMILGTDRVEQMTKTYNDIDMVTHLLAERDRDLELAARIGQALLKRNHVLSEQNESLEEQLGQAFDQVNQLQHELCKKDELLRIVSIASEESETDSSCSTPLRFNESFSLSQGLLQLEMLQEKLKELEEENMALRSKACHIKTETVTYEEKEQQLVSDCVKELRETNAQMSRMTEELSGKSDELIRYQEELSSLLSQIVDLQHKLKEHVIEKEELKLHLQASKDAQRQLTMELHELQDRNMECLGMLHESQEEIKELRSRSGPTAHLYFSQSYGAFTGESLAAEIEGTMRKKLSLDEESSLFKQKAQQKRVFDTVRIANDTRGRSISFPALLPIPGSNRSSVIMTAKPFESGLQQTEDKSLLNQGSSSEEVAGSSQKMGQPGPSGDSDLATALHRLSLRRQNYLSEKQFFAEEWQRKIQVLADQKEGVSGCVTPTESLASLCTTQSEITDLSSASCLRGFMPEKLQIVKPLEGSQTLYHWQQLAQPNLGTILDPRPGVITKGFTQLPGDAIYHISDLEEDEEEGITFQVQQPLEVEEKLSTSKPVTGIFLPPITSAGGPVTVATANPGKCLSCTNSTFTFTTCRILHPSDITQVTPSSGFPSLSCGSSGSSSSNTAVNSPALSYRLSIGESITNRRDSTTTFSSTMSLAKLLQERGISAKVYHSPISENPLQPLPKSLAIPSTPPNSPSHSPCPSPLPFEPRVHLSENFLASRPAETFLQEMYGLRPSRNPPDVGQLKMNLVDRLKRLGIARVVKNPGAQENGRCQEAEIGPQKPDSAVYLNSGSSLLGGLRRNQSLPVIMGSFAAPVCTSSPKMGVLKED

Halo-TRAK2 AA129-130VV = biological target: T2, Halo-TRAK2 AA129-130VV (UniProt O60296); assay: as above
T2 sequence: T1 sequence with A129V, A130V

Halo-TRAK2 I132D = biological target: T3, Halo-TRAK2 I132D (UniProt O60296); assay: as above
T3 sequence: T1 sequence with I132D

FLAG-p150^Glued = FLAG-p150^Glued (UniProt Q14203); assay: co-IP; COS-7 cells expressing FLAG-p150^Glued and Myc-KIF5B with or without HA-TRAK2; anti-FLAG antibody (negative control GFP antibody) on Protein G Dynabeads, 30 min at room temperature; Western blot
SNAP-TRAK2 = biological target: T4, SNAP-TRAK2 (UniProt O60296); assay: single-molecule co-migration (three-color TIRF microscopy); lysate of HeLa cells stably expressing DHC-GFP and transfected with SNAP-TRAK2 (JF646), Myc-KIF5C-Halo (TMR) and HA-LIS1, on unlabeled microtubules
T4 sequence (chain, JF646-SNAP ligand on the SNAP tag): T1 sequence

[2] = biological target: Myc-KIF5C-Halo (in HeLa) (mouse) (UniProt P28738); assay: as above
Halo-TRAK2 [3] = biological target: T1, Halo-TRAK2; assay: single-molecule co-migration (dual-color TIRF microscopy); lysate of COS-7 cells expressing TMR-labeled Halo-TRAK2 and GFP-p25, on dynamic microtubules at 37 C

Myc-KIF5B (from UniProt Q61768 1-963) was tested, and the binding (Halo-TRAK2 [1]) was “binds”, the binding (Halo-TRAK2 AA129-130VV) was “binds” and the binding (Halo-TRAK2 I132D) was “binds”. For the same substance, the binding (FLAG-p150^Glued) was “binds”.
For “GFP-tagged dynein heavy chain (DHC-GFP) (from UniProt Q9JHU4 1-4644)”, the binding (SNAP-TRAK2) was “binds” and the binding [2] was “binds”.
For eGFP-P25 (from UniProt Q9BTE1 1-182), the binding (Halo-TRAK2 [3]) was “binds”.
For “Myc-KIF5C-Halo (in HeLa) (from UniProt P28738 1-956)”, the binding (SNAP-TRAK2) was “binds”.
